Primary screen of a compound library

The values are deposited in ChEMBL (CHEMBL3988442, “University of Dundee, Small-Polar-MMV Screening Library” (2021)).

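Assay of Toxoplasma gondii numbers, read through their beta-galactosidase reporter with a colour substrate. Tested at 10 µM. The record gives no direction; the compounds picked for IC50 retests had high values, so higher reads as fewer parasites. Of about 67,000 compounds tested this way, about 260 (0.38%) reached 50% or more in at least one test.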

Results are given as percent effect.
The controls that fix the scale are not given in the record; negative values are as filed.
Compounds were drawn at random from those tested, without regard to their results.

- CN(C)C(=O)N1CCC(c2nc3ccc(-c4ccccc4)cn3n2)CC1 | 9.147%
- Cc1cc(C)c(-n2cccn2)c(CN2CCOCC(CN(C)C)C2)c1 (centres unmarked) | -9.738%
- Cc1cccc(S(=O)(=O)N2Cc3c(CN(C)C)nn(C)c3C2)c1 | -3.612%
- COCCC(=O)N1C[C@@H](c2ccc(F)c(F)c2)[C@@]2(CCCC(=O)N2)C1 | -3.732%
- CC(O)c1cn(Cc2cccc(C(F)(F)F)c2)nn1 (centres unmarked) | -19.72%
- Cc1occc1C(=O)N1CCC(C(O)c2ccc(F)cc2)CC1 (centres unmarked) | 0.6882%
- Cc1ccsc1C(=O)N1CC2CC1(C(=O)NCC1CC1)C2 | -4.354%
- Cc1cc(=O)[nH]c(NC2CCN(S(=O)(=O)c3ccccc3)CC2)n1 | -4.386%
- c1ccc(C2CCCN(c3cncc(-n4cccn4)n3)CC2)cc1 (centres unmarked) | 1.447%
- Cc1cc(C)n(CC(C)NC(=O)c2cc(CN3CCC(O)CC3)on2)n1 (centres unmarked) | 3.344%
- OCC(O)CN(CCN1CCOCC1)Cc1ccco1 (centres unmarked) | 1.123%
- Cc1ccc(C(=O)N2CCN(c3ncnc4nc(N)ccc34)CC2)cc1 | 4.176%
- Cc1ccc(N2CCC3(CCN(C(=O)c4ccsc4)CC3)CC2)nn1 | 0.8626%
- Cc1ccccc1S(=O)(=O)NC(=O)C1(c2cccc(Cl)c2)CC1 | -7.97%
- CN(C)C(=O)c1cccc(Nc2cnn(C)c2)c1 | -4.592%
- N#Cc1ccc(N2CCN(c3ncccn3)CC2)c(C(F)(F)F)c1 | 4.104%
- [H][C@]12CC[C@]([H])(CN(Cc3ccc(Cn4cccn4)cc3)C1)N(CCC)C2 | 1.941%
- CC(C)(CNC(=O)Nc1cccc(-c2cccs2)c1)C(N)=O | 8.891%
- O=C(O)C(F)(F)F.c1cnc(N2CCOC3(CCN(CC4CCOC4)CC3)C2)nc1 (centres unmarked) | 2.933%
- [H][C@@]12CC[C@H](Oc3ccccc3Cl)[C@]1([H])CN(C(=O)CN(C)C)C2 | 1.986%
- CCc1ncc2c(n1)CN(Cc1nc(C)c(C)o1)CC2 | -0.2189%
- O=C(Nc1cc(Cl)ccc1N1CCCCC1)c1ccccn1 | -2.892%
- CC(C)NC(=O)N1CCC2(CC1)CN(C(=O)NC(C)C)CCO2 | -9.041%
- CN(C)S(=O)(=O)CCNc1ncc2c(n1)CCN2c1ccccc1 | -1.101%
- CN1CCN(C(=O)c2ccc(=O)n(C)c2)c2ccccc21 | 7.539%
- COCCOc1ccc(NCc2cccc3cn[nH]c23)cn1 | 4.63%
- Cc1cccc(CN2CCc3nnc(CN4CCCC4=O)n3CC2)n1.O=C(O)C(F)(F)F | 6.23%
- CCn1cc(C(=O)Nc2ccc(C)cc2C(=O)NC)cn1 | -0.4419%
- O=C(CCCc1ccccc1)N1CCC(Nc2cccnn2)CC1 | -9.382%
- CN(CCCOc1ccccc1)Cc1nc2c(cnn2C)c(=O)[nH]1 | 6.407%
- O=S(=O)(CCNCc1ccc(Cl)cc1)N1CCOCC1 | 0.3623%

Some entries from above, unchanged:

Compound	percent effect
N#Cc1ccc(N2CCN(c3ncccn3)CC2)c(C(F)(F)F)c1	4.104
[H][C@]12CC[C@]([H])(CN(Cc3ccc(Cn4cccn4)cc3)C1)N(CCC)C2	1.941
Cc1cccc(S(=O)(=O)N2Cc3c(CN(C)C)nn(C)c3C2)c1	-3.612
COCCC(=O)N1C[C@@H](c2ccc(F)c(F)c2)[C@@]2(CCCC(=O)N2)C1	-3.732